Experimental data from PMC6401029.
No constants are given. Whether binding was seen depends on the method and setting. In cells and extracts the contact can be indirect. Some binding calls cover weakened binding; strength is not graded here.

Amino acid sequences for entries named in this document (tags omitted).
UniProt Q9JLV5: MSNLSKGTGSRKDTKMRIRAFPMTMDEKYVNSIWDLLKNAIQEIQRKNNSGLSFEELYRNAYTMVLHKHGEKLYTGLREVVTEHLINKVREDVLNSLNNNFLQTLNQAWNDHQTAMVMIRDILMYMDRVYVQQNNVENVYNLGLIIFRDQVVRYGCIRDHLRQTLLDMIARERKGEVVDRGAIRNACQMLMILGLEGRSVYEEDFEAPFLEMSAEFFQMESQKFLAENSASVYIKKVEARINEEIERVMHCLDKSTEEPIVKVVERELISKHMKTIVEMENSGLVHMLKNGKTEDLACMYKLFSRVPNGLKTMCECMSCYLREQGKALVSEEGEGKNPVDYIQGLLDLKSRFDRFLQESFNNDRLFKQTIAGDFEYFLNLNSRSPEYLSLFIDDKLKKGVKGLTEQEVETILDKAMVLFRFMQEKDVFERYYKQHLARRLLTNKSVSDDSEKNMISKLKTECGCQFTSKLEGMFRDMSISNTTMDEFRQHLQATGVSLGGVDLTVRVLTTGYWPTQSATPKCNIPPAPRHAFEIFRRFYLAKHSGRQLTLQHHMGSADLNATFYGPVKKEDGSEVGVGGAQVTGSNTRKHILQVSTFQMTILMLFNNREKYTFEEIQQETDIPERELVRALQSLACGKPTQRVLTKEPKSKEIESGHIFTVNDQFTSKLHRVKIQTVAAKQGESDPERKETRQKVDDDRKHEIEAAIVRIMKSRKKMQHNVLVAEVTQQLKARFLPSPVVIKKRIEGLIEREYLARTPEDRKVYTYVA
UniProt Q8BNW9: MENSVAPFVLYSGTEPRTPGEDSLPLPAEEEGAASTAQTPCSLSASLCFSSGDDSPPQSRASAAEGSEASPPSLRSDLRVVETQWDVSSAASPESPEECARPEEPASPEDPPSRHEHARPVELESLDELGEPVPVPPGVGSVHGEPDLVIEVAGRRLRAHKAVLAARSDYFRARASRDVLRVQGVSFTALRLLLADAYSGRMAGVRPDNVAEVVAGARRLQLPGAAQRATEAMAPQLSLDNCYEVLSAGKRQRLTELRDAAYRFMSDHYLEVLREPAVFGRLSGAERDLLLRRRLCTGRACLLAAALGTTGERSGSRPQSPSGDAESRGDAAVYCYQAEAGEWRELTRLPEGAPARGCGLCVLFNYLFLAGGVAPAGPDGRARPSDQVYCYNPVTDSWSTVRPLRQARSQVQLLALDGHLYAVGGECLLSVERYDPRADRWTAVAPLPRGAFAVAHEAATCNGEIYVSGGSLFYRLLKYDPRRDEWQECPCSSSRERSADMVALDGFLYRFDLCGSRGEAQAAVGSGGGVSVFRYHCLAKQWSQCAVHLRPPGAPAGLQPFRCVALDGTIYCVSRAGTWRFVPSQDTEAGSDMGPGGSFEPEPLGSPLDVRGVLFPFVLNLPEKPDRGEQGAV

Target: Cullin3 (mouse (endogenous in RAW-D)) (UniProt Q9JLV5)
Assay: co-IP; RAW-D cells cultured with RANKL (100 ng/mL) for 2 days; lysed in PBS with 0.1% Triton X-100, 10 mM N-ethylmaleimide and proteinase inhibitors; supernatant immunoprecipitated with anti-Cullin3 antibody immobilised on resin (Pierce Co-immunoprecipitation Kit); western blot with anti-GFP antibody

binding: binds
Substance: KBTBD11-GFP fusion protein (Kelch repeat and BTB domain-containing protein 11, mouse) (from UniProt Q8BNW9 1-633)
